Data published in patent US20210261642A1, “SOLUBILITY OF GLP-1 PEPTIDE” (Novo Nordisk A/S, priority 2017, published 2021).
This continues a long series; more values of the same kind are listed elsewhere.

Assay: Assay (I): Determination of Solubility (96-well plate, pH 3.0-11.0, organic solvent 0-70% w/w, UV absorption at 280 nm)
Assay type: physicochemical
Description: Assay (I): Determination of Solubility
96-Well Plate Preparation
96-well plates containing target peptide in a solid form were prepared in one of two ways:
Method 1 (evaporation): Addition of 100 μl stock solution of said peptide at a concentration of 4-6 mg/ml to each well of a 96-well half area plate (150 μl well size). Subsequently the solvent was evaporated by applying a vacuum until the solvent was completely removed.
Method 2 (precipitation): Addition of a certain volume of a stock solution of said peptide containing to each well of a 96-well half area plate followed by the addition of a certain volume of concentrated phosphoric acid to obtain a pH of 4.6 followed by addition of a certain volume of ethanol resulting in a final ethanol concentration of 20% v/v. Subsequently the plate was stored at 4° C. for 1 h and then centrifuged at 4,000 rpm for 20 min. Finally the supernatant was removed. The concentration of the stock solution was chosen in a way that the final amount of peptide after supernatant removal was >0.4 mg per well.
In both cases the stock solution was prepared by adding de-ionized water to a certain amount of powder of said peptide followed by a stepwise addition of small amounts of a concentrated sodium hydroxide solution until said peptide was completely in solution.
To determine solubility of a target peptide at different pH and organic solvent concentrations, two different buffer systems were used in independent experiments to cover the whole range from pH 3.0 to pH 11.0. Buffer system 1 covers pH 3.0-7.5 and buffer system 2 covers pH 7.5-11.0. For each buffer system 96 different solvent compositions were premixed in the following way: • 1. A low pH buffer (adjusted to either pH 3.0 or pH 7.5) and a high pH buffer (adjusted to either pH 7.5 or pH 11.0) were mixed at 8 different ratios to obtain values between pH 3.0 and pH 7.5 or pH 7.5 and pH 11.0, respectively. The total volume after mixing was 300 μl. • 2. 12 different amounts of organic solvent were then added to these buffers to obtain organic solvent (e.g. ethanol) concentrations between 0 and 70% w/w. • 3. Water was then added to obtain a total weight of 1.0 g of solvent in each well.
After preparing the 96 different solvent systems, 100 μl of each system was transferred to the 96-well plate containing the solid form of the target peptide (prepared as described in the section “96-well plate preparation”). The plate was then stored at a given temperature (between 5° C. and 70° C.) for a given time on a rotating shaker set to 400 rpm. At regular time intervals the plate was centrifuged (4,000 rpm for 10 min) and a 10 μl sample was taken from each well. The samples were then analysed by UV absorption at 280 nm for peptide quantification. Peptide concentration results are given as UV absorption at 280 nm of the sample subtracted UV absorption at 280 nm of a well comprising 10 μl water.
The buffers used were as follows: • Buffer system 1 (for the pH range from pH 3.0-7.5)
• Buffer system 2 (for the pH ranae from pH 7.5-11.0)
Solubility of liraglutide was determined using Assay (I) described herein. Liraglutide was prepared using Method 1 (evaporation) or Method 2 (precipitation) as described in subsection “96-well plate preparation”.

[1] = MeCN 38.2% w/w, pH 3.0, 70° C., Method 1
[2] = MeCN 38.2% w/w, pH 3.0, RT, Method 1
[3] = MeCN 38.2% w/w, pH 3.6, 5° C., Method 1
[4] = MeCN 38.2% w/w, pH 3.6, 70° C., Method 1
[5] = MeCN 38.2% w/w, pH 3.6, RT, Method 1
[6] = MeCN 38.2% w/w, pH 4.3, 5° C., Method 1
[7] = MeCN 38.2% w/w, pH 4.3, 70° C., Method 1
[8] = MeCN 38.2% w/w, pH 4.3, RT, Method 1
[9] = MeCN 38.2% w/w, pH 4.9, 5° C., Method 1
[10] = MeCN 38.2% w/w, pH 4.9, 70° C., Method 1
[11] = MeCN 38.2% w/w, pH 4.9, RT, Method 1
[12] = MeCN 38.2% w/w, pH 5.6, 5° C., Method 1
[13] = MeCN 38.2% w/w, pH 5.6, 70° C., Method 1
[14] = MeCN 38.2% w/w, pH 5.6, RT, Method 1
[15] = MeCN 38.2% w/w, pH 6.2, 5° C., Method 1
[16] = MeCN 38.2% w/w, pH 6.2, 70° C., Method 1
[17] = MeCN 38.2% w/w, pH 6.2, RT, Method 1
[18] = MeCN 38.2% w/w, pH 6.9, 5° C., Method 1
[19] = MeCN 38.2% w/w, pH 6.9, 70° C., Method 1
[20] = MeCN 38.2% w/w, pH 6.9, RT, Method 1
[21] = MeCN 38.2% w/w, pH 7.5, 5° C., Method 1
[22] = MeCN 38.2% w/w, pH 7.5, 70° C., Method 1
[23] = MeCN 38.2% w/w, pH 7.5, RT, Method 1
[24] = MeCN 38.2% w/w, pH 8.0, 70° C., Method 1 (evaporation)
[25] = MeCN 38.2% w/w, pH 8.0, RT, Method 1
[26] = MeCN 38.2% w/w, pH 8.5, 70° C., Method 1 (evaporation)
[27] = MeCN 38.2% w/w, pH 8.5, RT, Method 1
[28] = MeCN 38.2% w/w, pH 9.0, 70° C., Method 1 (evaporation)
[29] = MeCN 38.2% w/w, pH 9.0, RT, Method 1
[30] = MeCN 38.2% w/w, pH 9.5, 70° C., Method 1 (evaporation)
[31] = MeCN 38.2% w/w, pH 9.5, RT, Method 1
[32] = MeCN 38.2% w/w, pH 10.0, 70° C., Method 1 (evaporation)
[33] = MeCN 38.2% w/w, pH 10.0, RT, Method 1
[34] = MeCN 38.2% w/w, pH 10.5, 70° C., Method 1 (evaporation)
[35] = MeCN 38.2% w/w, pH 10.5, RT, Method 1
[36] = MeCN 38.2% w/w, pH 11.0, 70° C., Method 1 (evaporation)
[37] = MeCN 38.2% w/w, pH 11.0, RT, Method 1
[38] = MeCN 44.5% w/w, pH 3.0, 5° C., Method 1

CCCCCCCCCCCCCCCC(=O)N[C@@H](CCC(=O)NCCCC[C@H](NC(=O)[C@H](C)NC(=O)[C@H](C)NC(=O)[C@H](CCC(N)=O)NC(=O)CNC(=O)[C@H](CCC(=O)O)NC(=O)[C@H](CC(C)C)NC(=O)[C@H](Cc1ccc(O)cc1)NC(=O)[C@H](CO)NC(=O)[C@H](CO)NC(=O)[C@@H](NC(=O)[C@H](CC(=O)O)NC(=O)[C@H](CO)NC(=O)[C@@H](NC(=O)[C@H](Cc1ccccc1)NC(=O)[C@@H](NC(=O)CNC(=O)[C@H](CCC(=O)O)NC(=O)[C@H](C)NC(=O)[C@@H](N)Cc1cnc[nH]1)[C@@H](C)O)[C@@H](C)O)C(C)C)C(=O)N[C@@H](CCC(=O)O)C(=O)N[C@@H](Cc1ccccc1)C(=O)N[C@H](C(=O)N[C@@H](C)C(=O)N[C@@H](Cc1c[nH]c2ccccc12)C(=O)N[C@@H](CC(C)C)C(=O)N[C@H](C(=O)N[C@@H](CCCNC(=N)N)C(=O)NCC(=O)N[C@@H](CCCNC(=N)N)C(=O)NCC(=O)O)C(C)C)[C@@H](C)CC)C(=O)O [liraglutide, Arg34,Lys26-(N-epsilon-(gamma-L-glutamyl(N-alfa-hexadecanoyl)))-GLP-1(7-37)]
Peptide concentration after 24 h (MeCN 38.2% w/w, pH 3.0, 5° C., Method 1): 0.5 mg/mL | Peptide concentration after 5 min [1]: 0.7 mg/mL | Peptide concentration after 180 min [1]: 1.1 mg/mL | Peptide concentration after 5 min [2]: 0.4 mg/mL | Peptide concentration after 180 min [2]: 0.5 mg/mL | Peptide concentration after 24 h [2]: 0.1 mg/mL | Peptide concentration after 5 min [3]: 0.2 mg/mL | Peptide concentration after 180 min [3]: 0.5 mg/mL | Peptide concentration after 24 h [3]: 0.5 mg/mL | Peptide concentration after 5 min [4]: 0.4 mg/mL | Peptide concentration after 180 min [4]: 0.6 mg/mL | Peptide concentration after 5 min [5]: 0.2 mg/mL | Peptide concentration after 180 min [5]: 0.3 mg/mL | Peptide concentration after 24 h [5]: 0.0 mg/mL | Peptide concentration after 5 min [6]: 0.2 mg/mL | Peptide concentration after 180 min [6]: 0.3 mg/mL | Peptide concentration after 24 h [6]: 0.2 mg/mL | Peptide concentration after 5 min [7]: 0.4 mg/mL | Peptide concentration after 180 min [7]: 0.3 mg/mL | Peptide concentration after 5 min [8]: 0.3 mg/mL | Peptide concentration after 180 min [8]: 0.2 mg/mL | Peptide concentration after 24 h [8]: 0.1 mg/mL | Peptide concentration after 5 min [9]: 0.1 mg/mL | Peptide concentration after 180 min [9]: 0.3 mg/mL | Peptide concentration after 24 h [9]: 0.2 mg/mL | Peptide concentration after 5 min [10]: 0.3 mg/mL | Peptide concentration after 180 min [10]: 0.3 mg/mL | Peptide concentration after 5 min [11]: 0.2 mg/mL | Peptide concentration after 180 min [11]: 0.2 mg/mL | Peptide concentration after 24 h [11]: 0.0 mg/mL | Peptide concentration after 5 min [12]: 0.6 mg/mL | Peptide concentration after 180 min [12]: 0.6 mg/mL | Peptide concentration after 24 h [12]: 0.2 mg/mL | Peptide concentration after 5 min [13]: 1.1 mg/mL | Peptide concentration after 180 min [13]: 0.8 mg/mL | Peptide concentration after 5 min [14]: 0.7 mg/mL | Peptide concentration after 180 min [14]: 0.5 mg/mL | Peptide concentration after 24 h [14]: 0.1 mg/mL | Peptide concentration after 5 min [15]: 1.2 mg/mL | Peptide concentration after 180 min [15]: 1.1 mg/mL | Peptide concentration after 24 h [15]: 0.4 mg/mL | Peptide concentration after 5 min [16]: 1.7 mg/mL | Peptide concentration after 180 min [16]: 1.4 mg/mL | Peptide concentration after 5 min [17]: 1.1 mg/mL | Peptide concentration after 180 min [17]: 0.9 mg/mL | Peptide concentration after 24 h [17]: 0.2 mg/mL | Peptide concentration after 5 min [18]: 1.2 mg/mL | Peptide concentration after 180 min [18]: 2.6 mg/mL | Peptide concentration after 24 h [18]: 1.6 mg/mL | Peptide concentration after 5 min [19]: 2.7 mg/mL | Peptide concentration after 180 min [19]: 3.8 mg/mL | Peptide concentration after 5 min [20]: 1.5 mg/mL | Peptide concentration after 180 min [20]: 2.3 mg/mL | Peptide concentration after 24 h [20]: 0.6 mg/mL | Peptide concentration after 5 min [21]: 1.1 mg/mL | Peptide concentration after 180 min [21]: 4.0 mg/mL | Peptide concentration after 24 h [21]: >4.0 mg/mL | Peptide concentration after 5 min [22]: >4.0 mg/mL | Peptide concentration after 180 min [22]: >4.0 mg/mL | Peptide concentration after 5 min [23]: 1.0 mg/mL | Peptide concentration after 180 min [23]: >4.0 mg/mL | Peptide concentration after 24 h [23]: >4.0 mg/mL | Peptide concentration after 5 min [24]: 3.9 mg/mL | Peptide concentration after 180 min [24]: >4.0 mg/mL | Peptide concentration after 5 min [25]: 1.4 mg/mL | Peptide concentration after 180 min [25]: >4.0 mg/mL | Peptide concentration after 24 h [25]: >4.0 mg/mL | Peptide concentration after 5 min [26]: >4.0 mg/mL | Peptide concentration after 180 min [26]: >4.0 mg/mL | Peptide concentration after 5 min [27]: 1.7 mg/mL | Peptide concentration after 180 min [27]: >4.0 mg/mL | Peptide concentration after 24 h [27]: >4.0 mg/mL | Peptide concentration after 5 min [28]: 2.8 mg/mL | Peptide concentration after 180 min [28]: >4.0 mg/mL | Peptide concentration after 5 min [29]: 1.1 mg/mL | Peptide concentration after 180 min [29]: >4.0 mg/mL | Peptide concentration after 24 h [29]: >4.0 mg/mL | Peptide concentration after 5 min [30]: 4.0 mg/mL | Peptide concentration after 180 min [30]: >4.0 mg/mL | Peptide concentration after 5 min [31]: 1.0 mg/mL | Peptide concentration after 180 min [31]: >4.0 mg/mL | Peptide concentration after 24 h [31]: >4.0 mg/mL | Peptide concentration after 5 min [32]: >4.0 mg/mL | Peptide concentration after 180 min [32]: >4.0 mg/mL | Peptide concentration after 5 min [33]: 1.9 mg/mL | Peptide concentration after 180 min [33]: >4.0 mg/mL | Peptide concentration after 24 h [33]: >4.0 mg/mL | Peptide concentration after 5 min [34]: 3.3 mg/mL | Peptide concentration after 180 min [34]: >4.0 mg/mL | Peptide concentration after 5 min [35]: 1.6 mg/mL | Peptide concentration after 180 min [35]: >4.0 mg/mL | Peptide concentration after 24 h [35]: 3.8 mg/mL | Peptide concentration after 5 min [36]: 3.8 mg/mL | Peptide concentration after 180 min [36]: >4.0 mg/mL | Peptide concentration after 5 min [37]: 1.2 mg/mL | Peptide concentration after 180 min [37]: >4.0 mg/mL | Peptide concentration after 24 h [37]: 3.4 mg/mL | Peptide concentration after 5 min [38]: 0.4 mg/mL | Peptide concentration after 180 min [38]: 1.4 mg/mL
